{"source": "patent US20200147070A1", "about": "“INDUCING PHOSPHOLIPIDOSIS FOR ENHANCING THERAPEUTIC EFFICACY” (Nextcea Inc., priority 2017, published 2020)", "key": {"[1]": {"test_system": "di-22:6-BMP", "test": "PL biomarker di-22:6-BMP in tissues and urine", "type": "in vivo, Sprague-Dawley rats", "details": "co-administered bedaquiline 60 mg/kg/day and citalopram 70 mg/kg/day, 2 weeks"}, "[2]": {"test_system": "liver, kidney, and heart", "test": "Electron microscopic examination of tissue sections for phospholipidosis, 2-week repeat dose study", "type": "in vivo, Sprague-Dawley rats", "details": "co-administered bedaquiline 60 mg/kg/day and citalopram 70 mg/kg/day, 2 weeks", "description": "FIG. 3 is a set of electron micrographs depicting the accumulation of lysosomal myeloid bodies, indicative of PL, in rat tissues. Sprague-Dawley rats received once daily oral (PO) co-administration of bedaquiline (60 mg/kg/day) and citalopram (70 mg/kg/day) for 2 weeks.\nSprague-Dawley rats were co-administered bedaquiline (60 mg/kg/day) and citalopram (70 mg/kg/day) in a 2-week repeat dose study. Tissue sections (liver, kidney, and heart) were collected at 2 weeks for electron microscopic examination and PL biomarker/proteomic evaluation."}}, "note": "For at least one compound, name, drawing or mass did not settle the structure.", "data": [{"compound": "CN(C)CCCC1(c2ccc(F)cc2)OCc2cc(C#N)ccc21", "note": "(centres unmarked) [citalopram]", "values": [{"measurement": "biomarker di-22:6-BMP in rat tissues and urine", "setting": "[1]", "result": "increase"}, {"measurement": "multi-lamellar lysosomal inclusions and electron dense deposits (indicative of drug-induced PL)", "setting": "[2]", "result": "treatment-dependent increase"}]}]}
